Results: the supplement of paper PMC6411743
± gives the standard deviation of the averaged measurements. This is a selection; strong and weak results do not stand in their true shares.

Chains of the proteins cited; added tags and fusions are not shown. Lines headed by an entry give the natural chain unless they say otherwise; changes in a name come on top.
UniProt Q15334: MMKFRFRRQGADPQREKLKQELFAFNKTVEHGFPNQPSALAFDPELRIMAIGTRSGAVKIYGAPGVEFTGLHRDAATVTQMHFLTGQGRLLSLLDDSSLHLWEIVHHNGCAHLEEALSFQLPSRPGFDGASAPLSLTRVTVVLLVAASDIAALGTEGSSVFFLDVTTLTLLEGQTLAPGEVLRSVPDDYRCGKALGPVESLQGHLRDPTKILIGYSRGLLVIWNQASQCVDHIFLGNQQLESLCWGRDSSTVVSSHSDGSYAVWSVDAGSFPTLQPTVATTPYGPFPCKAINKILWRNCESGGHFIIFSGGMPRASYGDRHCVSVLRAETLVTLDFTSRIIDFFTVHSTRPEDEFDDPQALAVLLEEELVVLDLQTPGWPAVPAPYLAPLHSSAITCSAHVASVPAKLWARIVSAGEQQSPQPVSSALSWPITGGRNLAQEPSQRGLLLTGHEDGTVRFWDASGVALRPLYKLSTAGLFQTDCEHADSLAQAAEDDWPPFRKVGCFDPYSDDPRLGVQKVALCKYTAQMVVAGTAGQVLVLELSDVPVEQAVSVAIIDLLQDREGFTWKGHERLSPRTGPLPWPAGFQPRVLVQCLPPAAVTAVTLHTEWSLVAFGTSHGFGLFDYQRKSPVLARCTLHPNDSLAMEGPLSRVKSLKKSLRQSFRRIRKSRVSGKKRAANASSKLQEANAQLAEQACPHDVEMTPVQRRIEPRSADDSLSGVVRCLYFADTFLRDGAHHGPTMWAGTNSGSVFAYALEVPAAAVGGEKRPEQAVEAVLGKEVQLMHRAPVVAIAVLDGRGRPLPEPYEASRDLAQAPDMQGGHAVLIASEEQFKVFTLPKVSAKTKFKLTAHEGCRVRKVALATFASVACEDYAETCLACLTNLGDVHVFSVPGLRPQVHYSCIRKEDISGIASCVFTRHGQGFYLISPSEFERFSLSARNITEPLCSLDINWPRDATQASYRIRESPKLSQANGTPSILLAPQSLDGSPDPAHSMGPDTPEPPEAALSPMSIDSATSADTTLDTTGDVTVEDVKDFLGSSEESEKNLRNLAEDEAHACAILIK
UniProt Q96RT8, whole entry: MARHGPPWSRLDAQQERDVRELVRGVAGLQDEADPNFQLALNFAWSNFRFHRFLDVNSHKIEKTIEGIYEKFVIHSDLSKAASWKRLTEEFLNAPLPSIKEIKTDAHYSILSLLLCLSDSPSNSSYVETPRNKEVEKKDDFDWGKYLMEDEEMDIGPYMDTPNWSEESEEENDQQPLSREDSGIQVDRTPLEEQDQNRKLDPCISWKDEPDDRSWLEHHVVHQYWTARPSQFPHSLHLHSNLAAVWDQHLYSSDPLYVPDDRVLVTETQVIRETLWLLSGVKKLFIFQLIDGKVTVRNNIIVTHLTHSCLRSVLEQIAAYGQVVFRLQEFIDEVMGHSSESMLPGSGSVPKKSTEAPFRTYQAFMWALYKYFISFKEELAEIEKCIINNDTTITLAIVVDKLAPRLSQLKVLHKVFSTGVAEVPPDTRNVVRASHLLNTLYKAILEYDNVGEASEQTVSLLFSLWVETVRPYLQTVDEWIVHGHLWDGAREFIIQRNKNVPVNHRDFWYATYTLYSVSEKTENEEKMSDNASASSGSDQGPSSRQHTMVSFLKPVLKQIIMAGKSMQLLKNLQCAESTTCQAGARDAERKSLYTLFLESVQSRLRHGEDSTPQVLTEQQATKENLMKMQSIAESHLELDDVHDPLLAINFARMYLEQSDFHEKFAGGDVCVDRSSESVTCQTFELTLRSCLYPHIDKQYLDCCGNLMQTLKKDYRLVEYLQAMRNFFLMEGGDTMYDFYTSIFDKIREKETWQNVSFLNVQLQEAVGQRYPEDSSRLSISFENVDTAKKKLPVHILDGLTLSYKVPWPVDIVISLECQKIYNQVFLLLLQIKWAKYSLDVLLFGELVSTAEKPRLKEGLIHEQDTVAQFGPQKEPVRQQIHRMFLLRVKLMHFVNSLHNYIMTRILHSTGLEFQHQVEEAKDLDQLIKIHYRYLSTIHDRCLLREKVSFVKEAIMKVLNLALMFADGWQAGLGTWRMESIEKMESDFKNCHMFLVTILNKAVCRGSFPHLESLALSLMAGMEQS
UniProt Q14242: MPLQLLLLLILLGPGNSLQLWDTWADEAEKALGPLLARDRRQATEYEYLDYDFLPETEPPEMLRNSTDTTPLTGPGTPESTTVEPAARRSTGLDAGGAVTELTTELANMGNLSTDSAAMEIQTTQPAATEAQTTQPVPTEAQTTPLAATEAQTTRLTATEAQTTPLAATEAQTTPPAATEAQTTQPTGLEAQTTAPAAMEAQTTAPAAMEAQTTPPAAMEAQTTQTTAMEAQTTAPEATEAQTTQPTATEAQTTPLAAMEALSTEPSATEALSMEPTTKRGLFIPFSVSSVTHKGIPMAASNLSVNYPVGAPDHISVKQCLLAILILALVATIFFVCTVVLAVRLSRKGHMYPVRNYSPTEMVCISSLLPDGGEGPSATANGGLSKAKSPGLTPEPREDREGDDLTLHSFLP
UniProt O15318: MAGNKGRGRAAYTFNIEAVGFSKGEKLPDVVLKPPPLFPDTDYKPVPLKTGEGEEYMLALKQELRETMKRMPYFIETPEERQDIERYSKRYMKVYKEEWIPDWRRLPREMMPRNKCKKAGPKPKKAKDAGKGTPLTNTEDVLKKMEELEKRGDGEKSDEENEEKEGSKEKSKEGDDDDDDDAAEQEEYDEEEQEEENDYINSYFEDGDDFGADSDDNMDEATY
UniProt Q96C36: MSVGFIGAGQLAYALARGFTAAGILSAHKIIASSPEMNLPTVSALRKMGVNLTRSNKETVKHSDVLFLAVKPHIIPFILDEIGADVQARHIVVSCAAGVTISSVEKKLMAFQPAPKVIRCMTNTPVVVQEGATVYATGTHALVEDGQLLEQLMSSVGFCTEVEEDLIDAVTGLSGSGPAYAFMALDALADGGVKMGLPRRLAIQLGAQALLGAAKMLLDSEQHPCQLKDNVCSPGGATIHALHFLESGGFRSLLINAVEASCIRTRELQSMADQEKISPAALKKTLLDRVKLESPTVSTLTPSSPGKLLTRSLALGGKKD
UniProt P42765: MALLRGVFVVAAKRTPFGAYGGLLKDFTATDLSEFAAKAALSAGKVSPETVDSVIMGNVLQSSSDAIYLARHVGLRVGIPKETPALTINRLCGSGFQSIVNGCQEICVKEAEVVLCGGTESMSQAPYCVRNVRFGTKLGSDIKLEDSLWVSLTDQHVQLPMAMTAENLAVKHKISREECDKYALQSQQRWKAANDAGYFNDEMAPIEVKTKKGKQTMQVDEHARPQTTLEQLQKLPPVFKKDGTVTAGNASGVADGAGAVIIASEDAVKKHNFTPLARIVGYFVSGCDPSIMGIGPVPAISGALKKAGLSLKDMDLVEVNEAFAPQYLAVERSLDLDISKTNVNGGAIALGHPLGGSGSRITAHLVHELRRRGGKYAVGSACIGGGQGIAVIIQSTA
UniProt Q9H299: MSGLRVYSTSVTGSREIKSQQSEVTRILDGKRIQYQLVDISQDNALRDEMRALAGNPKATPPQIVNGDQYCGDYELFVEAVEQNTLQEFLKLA
UniProt Q9BUJ2: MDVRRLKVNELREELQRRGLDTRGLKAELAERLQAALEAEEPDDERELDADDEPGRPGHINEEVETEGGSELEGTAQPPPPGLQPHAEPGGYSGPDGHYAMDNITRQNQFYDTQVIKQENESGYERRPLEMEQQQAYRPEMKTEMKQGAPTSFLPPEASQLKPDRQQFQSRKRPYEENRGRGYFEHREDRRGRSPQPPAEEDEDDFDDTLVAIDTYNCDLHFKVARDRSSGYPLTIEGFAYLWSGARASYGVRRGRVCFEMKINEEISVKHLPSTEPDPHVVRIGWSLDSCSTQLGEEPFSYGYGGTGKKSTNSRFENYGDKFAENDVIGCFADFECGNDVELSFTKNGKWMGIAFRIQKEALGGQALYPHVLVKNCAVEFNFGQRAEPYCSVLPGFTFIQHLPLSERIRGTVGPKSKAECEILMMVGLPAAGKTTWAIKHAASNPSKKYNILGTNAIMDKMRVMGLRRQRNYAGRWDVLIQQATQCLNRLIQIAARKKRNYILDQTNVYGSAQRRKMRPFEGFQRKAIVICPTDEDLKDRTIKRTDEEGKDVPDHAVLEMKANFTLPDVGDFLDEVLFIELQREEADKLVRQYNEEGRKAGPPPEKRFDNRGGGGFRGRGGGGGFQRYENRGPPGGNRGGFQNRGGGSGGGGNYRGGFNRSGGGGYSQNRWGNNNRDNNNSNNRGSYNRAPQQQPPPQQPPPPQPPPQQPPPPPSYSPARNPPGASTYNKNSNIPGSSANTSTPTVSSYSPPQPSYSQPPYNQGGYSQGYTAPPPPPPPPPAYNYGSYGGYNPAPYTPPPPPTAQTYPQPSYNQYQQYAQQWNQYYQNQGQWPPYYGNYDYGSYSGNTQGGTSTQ
UniProt O75027: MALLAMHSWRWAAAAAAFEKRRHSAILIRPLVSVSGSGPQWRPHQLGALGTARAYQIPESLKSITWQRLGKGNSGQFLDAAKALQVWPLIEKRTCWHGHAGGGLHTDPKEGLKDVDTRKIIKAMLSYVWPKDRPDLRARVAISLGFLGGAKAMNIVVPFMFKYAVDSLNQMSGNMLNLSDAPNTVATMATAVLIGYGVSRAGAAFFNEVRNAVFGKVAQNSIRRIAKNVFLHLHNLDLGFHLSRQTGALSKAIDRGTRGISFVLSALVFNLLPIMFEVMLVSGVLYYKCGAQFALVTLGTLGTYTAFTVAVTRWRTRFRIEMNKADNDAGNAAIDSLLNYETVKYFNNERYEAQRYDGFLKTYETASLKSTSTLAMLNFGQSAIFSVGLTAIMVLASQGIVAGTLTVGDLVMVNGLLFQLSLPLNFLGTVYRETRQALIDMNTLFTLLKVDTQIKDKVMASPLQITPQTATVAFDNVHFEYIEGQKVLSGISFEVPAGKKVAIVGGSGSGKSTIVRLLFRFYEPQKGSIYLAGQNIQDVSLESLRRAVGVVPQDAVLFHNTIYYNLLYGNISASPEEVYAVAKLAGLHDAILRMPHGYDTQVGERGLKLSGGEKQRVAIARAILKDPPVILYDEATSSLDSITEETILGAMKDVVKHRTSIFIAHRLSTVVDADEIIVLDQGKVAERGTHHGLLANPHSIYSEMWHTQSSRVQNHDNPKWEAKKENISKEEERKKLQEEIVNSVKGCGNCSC
UniProt P36969, whole entry: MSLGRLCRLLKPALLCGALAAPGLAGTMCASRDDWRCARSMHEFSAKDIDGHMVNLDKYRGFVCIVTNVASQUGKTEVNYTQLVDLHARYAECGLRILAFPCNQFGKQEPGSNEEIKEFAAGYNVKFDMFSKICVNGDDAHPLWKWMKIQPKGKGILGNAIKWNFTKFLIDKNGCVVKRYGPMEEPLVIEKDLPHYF
UniProt Q9NP73: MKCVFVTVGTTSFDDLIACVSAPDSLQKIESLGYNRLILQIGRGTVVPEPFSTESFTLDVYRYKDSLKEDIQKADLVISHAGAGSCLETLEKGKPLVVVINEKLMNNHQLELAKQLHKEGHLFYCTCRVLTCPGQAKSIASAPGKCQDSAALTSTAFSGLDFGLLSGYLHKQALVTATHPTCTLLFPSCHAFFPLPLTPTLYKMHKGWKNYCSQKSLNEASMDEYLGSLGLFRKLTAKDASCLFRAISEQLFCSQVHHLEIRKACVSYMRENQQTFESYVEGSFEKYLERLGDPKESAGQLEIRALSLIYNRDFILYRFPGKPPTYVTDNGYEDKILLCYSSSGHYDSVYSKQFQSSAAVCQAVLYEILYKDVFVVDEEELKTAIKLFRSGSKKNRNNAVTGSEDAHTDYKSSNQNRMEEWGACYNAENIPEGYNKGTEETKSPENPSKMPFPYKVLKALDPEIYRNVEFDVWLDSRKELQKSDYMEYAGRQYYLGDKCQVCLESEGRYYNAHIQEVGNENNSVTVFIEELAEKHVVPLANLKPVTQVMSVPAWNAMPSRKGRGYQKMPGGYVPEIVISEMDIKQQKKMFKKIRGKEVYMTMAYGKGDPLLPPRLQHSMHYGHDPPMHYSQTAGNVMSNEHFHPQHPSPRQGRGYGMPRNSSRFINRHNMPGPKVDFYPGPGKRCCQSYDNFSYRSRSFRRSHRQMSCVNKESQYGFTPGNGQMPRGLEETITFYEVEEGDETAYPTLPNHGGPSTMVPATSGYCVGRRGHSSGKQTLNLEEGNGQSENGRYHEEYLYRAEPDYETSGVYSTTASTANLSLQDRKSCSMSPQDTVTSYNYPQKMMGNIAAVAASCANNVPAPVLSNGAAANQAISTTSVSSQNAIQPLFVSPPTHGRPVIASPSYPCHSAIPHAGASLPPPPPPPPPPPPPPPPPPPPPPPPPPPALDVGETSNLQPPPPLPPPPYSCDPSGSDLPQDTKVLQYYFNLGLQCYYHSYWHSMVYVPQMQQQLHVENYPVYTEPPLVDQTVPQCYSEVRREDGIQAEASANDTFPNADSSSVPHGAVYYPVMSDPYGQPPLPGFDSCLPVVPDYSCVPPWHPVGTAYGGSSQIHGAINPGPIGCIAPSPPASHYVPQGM

Compound: Nc1ncnc2c1ncn2[C@@H]1O[C@H](COP(=O)(O)OP(=O)(O)OP(=O)(O)O)[C@@H](O)[C@H]1O [adenosine triphosphate]
Test: NP40-soluble protein abundance relative to vehicle (solubility fold change) (ratio); higher = more soluble protein in presence of ATP
Summary of the method: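 Jurkat crude lysate prepared with a Dounce homogeniser was treated at eight concentrations spanning 0.1 to 10 mM, 10 min at room temperature then 3 min at 37 °C. Solubilisation with 0.8% NP40 and benzonase and ultracentrifugation preceded TMT labelling of the supernatant for LC-MS/MS. Fold change against the detergent-processed vehicle was determined per replicate from vsn-normalised intensities, across three independent experiments.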

Target	NP40-soluble protein abundance (concentration: 1mM)	NP40-soluble protein abundance (concentration: 2mM)	NP40-soluble protein abundance (concentration: 4mM)	NP40-soluble protein abundance (concentration: 6mM)	NP40-soluble protein abundance (concentration: 8mM)	NP40-soluble protein abundance (concentration: 10mM)
A0A0A0MQU0|Q9BV38 and related entries (UniProt Q9BV38)	0.935 ± 0.11	0.973 ± 0.071	0.964 ± 0.078	0.914 ± 0.062	0.974 ± 0.037	1 ± 0.056
A0A087WW77|Q15334 (UniProt Q15334)	1.07 ± 0.017	1.07 ± 0.03	1.06 ± 0.015	1.03 ± 0.014	1.07 ± 0.05	1.07 ± 0.068
A0A087WWW9|O95999 (UniProt O95999)	0.922 ± 0.049	0.953 ± 0.021	0.907 ± 0.015	0.946 ± 0.036	0.902 ± 0.028	0.887 ± 0.056
A0A087X1S6|B5MDU3 and related entries (UniProt Q96JA3)	1.01 ± 0.12	1.02 ± 0.16	1.04 ± 0.2	1.07 ± 0.21	1.02 ± 0.23	1.07 ± 0.27
A0A096LP59|P46100 and related entries (UniProt P46100)	0.978 ± 0.038	0.981 ± 0.033	0.963 ± 0.029	1.02 ± 0.051	0.96 ± 0.031	1 ± 0.041
A0A087X1Z1|A0A0G2JPW5|A0A0G2JQX1|A0A0G2JSA7|Q96RT8 and related entries (UniProt Q96RT8)	0.996 ± 0.088	0.941 ± 0.057	0.994 ± 0.06	0.89 ± 0.048	0.982 ± 0.075	0.957 ± 0.076
A0A0C4DFY0|Q14242 and related entries (UniProt Q14242)	0.833 ± 0.13	0.764 ± 0.1	0.894 ± 0.092	0.903 ± 0.096	0.843 ± 0.12	0.77 ± 0.072
A0A075B738|P16284 (UniProt P16284)	0.938 ± 0.054	0.943 ± 0.037	0.933 ± 0.021	0.972 ± 0.035	0.899 ± 0.016	0.914 ± 0.058
A0A0D9SFR6|Q86XP1 and related entries (UniProt Q86XP1)	1.06 ± 0.051	1.03 ± 0.055	1.08 ± 0.098	1.06 ± 0.035	0.98 ± 0.086	1.03 ± 0.051
A0A087WTV7|D6R9U7 and related entries (UniProt O15318)	0.908 ± 0.099	0.949 ± 0.043	0.893 ± 0.059	0.895 ± 0.036	0.838 ± 0.11	0.858 ± 0.098
A0A087WTV6|Q96C36 (UniProt Q96C36)	0.984 ± 0.069	0.974 ± 0.084	0.931 ± 0.046	0.985 ± 0.1	0.929 ± 0.059	0.944 ± 0.032
A0A0B4J2A4|P42765 (UniProt P42765)	0.997 ± 0.015	0.9928 ± 0.006	0.945 ± 0.014	0.996 ± 0.025	0.951 ± 0.012	0.946 ± 0.019
A0A087WTU9|A0A087WZY3|Q8TCU4 and related entries (UniProt Q8TCU4)	1.48 ± 0.91	0.841 ± 0.16	0.818 ± 0.046	0.903 ± 0.018	0.91 ± 0.017	0.865 ± 0.064
A0A0A0MTS7|Q8WZ42-12 (UniProt Q8WZ42)	0.936 ± 0.055	0.954 ± 0.054	0.935 ± 0.039	0.917 ± 0.052	0.962 ± 0.022	0.994 ± 0.039
A0A087X256|Q2M389 (UniProt Q2M389)	1.04 ± 0.16	1.05 ± 0.12	1.04 ± 0.077	0.961 ± 0.12	1.1 ± 0.066	1.04 ± 0.077
A0A087X0M4|Q9BWU0 (UniProt Q9BWU0)	1 ± 0.034	1 ± 0.029	1.01 ± 0.024	1.02 ± 0.03	1.02 ± 0.033	1.03 ± 0.043
A0A087WV23|Q5T123 and related entries (UniProt Q9H299)	0.907 ± 0.066	0.921 ± 0.048	0.929 ± 0.065	0.956 ± 0.068	0.907 ± 0.049	0.846 ± 0.056
A0A0A0MRA5|Q9BUJ2-2|Q9BUJ2-4|Q9BUJ2 (UniProt Q9BUJ2)	1.01 ± 0.052	1.01 ± 0.026	1.01 ± 0.042	1.05 ± 0.035	1.04 ± 0.041	1.05 ± 0.057
A0A087WW65|O75027 and related entries (UniProt O75027)	1.12 ± 0.22	1.06 ± 0.08	1.04 ± 0.078	0.957 ± 0.12	1.04 ± 0.051	1.02 ± 0.075
A0A087WT12|A0A087X2I2|K7ERP4 and related entries (UniProt P36969)	0.93 ± 0.035	0.96 ± 0.047	0.945 ± 0.023	0.885 ± 0.072	0.9238 ± 0.0029	0.952 ± 0.033
A0A096LP10|Q9NP73-2|A0A087WTT9|A0A087WX43|A0A096LNJ4|D6RE84 and related entries (UniProt Q9NP73)	1.16 ± 0.17	1.04 ± 0.02	1.02 ± 0.064	0.975 ± 0.039	0.971 ± 0.071	1.01 ± 0.059
A0A087WU73|A0A087X287|B0QY83 and related entries (UniProt Q969V6)	0.909 ± 0.023	0.957 ± 0.13	1.03 ± 0.11	0.948 ± 0.15	0.939 ± 0.042	0.924 ± 0.13
A0A0C4DGV5|O95218 and related entries (UniProt O95218)	0.903 ± 0.061	0.864 ± 0.018	0.768 ± 0.028	0.76 ± 0.052	0.702 ± 0.054	0.665 ± 0.015
A0A0A0MTD9|A0A0A0MTE6|A0A0B4J1S7|E9PMT0 and related entries (UniProt Q9Y2R2)	1.05 ± 0.067	1.03 ± 0.049	1.11 ± 0.076	1.08 ± 0.068	1.06 ± 0.092	1.13 ± 0.1
A0A0A6YYC8|I3L1I5 (UniProt I3L1I5)	0.895 ± 0.045	0.892 ± 0.033	0.93 ± 0.024	0.892 ± 0.11	0.893 ± 0.015	0.877 ± 0.087
A0A0C4DGT5|Q5RL73 and related entries (UniProt Q5RL73)	0.958 ± 0.052	0.965 ± 0.11	1.01 ± 0.083	0.997 ± 0.089	0.957 ± 0.13	1.02 ± 0.061
A0A087WUK2|O14979-3 (UniProt O14979)	1.01 ± 0.022	1 ± 0.035	0.998 ± 0.051	1.05 ± 0.085	1.04 ± 0.056	1.03 ± 0.061
A0A0C4DFP8|Q5HYA8 (UniProt Q5HYA8)	1.01 ± 0.12	0.885 ± 0.14	0.9429 ± 0.0073	0.96 ± 0.14	0.91067 ± 0.00083	0.953 ± 0.12

An excerpt from above, reduced to NP40-soluble protein abundance (concentration: 6mM), NP40-soluble protein abundance (concentration: 2mM) and NP40-soluble protein abundance (concentration: 1mM):
Target	NP40-soluble protein abundance (concentration: 6mM)	NP40-soluble protein abundance (concentration: 2mM)	NP40-soluble protein abundance (concentration: 1mM)
A0A096LP10|Q9NP73-2|A0A087WTT9|A0A087WX43|A0A096LNJ4|D6RE84 and related entries (UniProt Q9NP73)	0.975 ± 0.039	1.04 ± 0.02	1.16 ± 0.17
A0A087WU73|A0A087X287|B0QY83 and related entries (UniProt Q969V6)	0.948 ± 0.15	0.957 ± 0.13	0.909 ± 0.023
